Experimental data: patent publication US9968606B2, “Deuterated compounds for treating cancer and related diseases and conditions, and compositions and methods thereof” (NeuForm Pharmaceuticals, Inc., priority 2015, dated 2018)
Where “and” joins values, the source holds several entries; their conditions need not be identical. Equal values may be shown once. The name of at least one read-out is uncertain.

Assay: Reactivity as covalent inhibitor: half-life in buffered aqueous cysteine solution
Details: PBS buffer with cysteine, 37° C., reference osimertinib in combo solution with the deuterated compound; listed as Osimeritinib
Experimental: The combo solutions were prepared by mixing individual evaluated compounds with reference osimertinib. Then, they were added to PBS buffer solution with cysteine at 37° C. The stability time course samples (in triplicate) were taken and added to prechilled quenching solution and then store at −70° C. freezer. The samples were analyzed on a Waters Acquity UPLC system coupled with a Bruker Q-tof mass spectrometer. The peak areas of respective extracted ion chromatograms were used for relative comparison.

For `C=CC(=O)Nc1cc(Nc2nccc(-c3cn(C)c4ccccc34)n2)c(OC)cc1N(C)CCN(C)C` [Osimertinib, N-(2-{2-dimethylaminoethyl-methylamino}-4-methoxy-5-{[4-(1-methylindol-3-yl)pyrimidin-2-yl]amino}phenyl)prop-2-enamide, reference compound], the “Half-life in cysteine solution, Reference (t½ h)” value was 5.62 h and 3.92 h.
